Among the data in PubChem BioAssay AID1347423 (Functional Genomics Laboratory (NCATS/FGL), 2020) are z-score values, retold here.

Out of some 52,000 sequences screened, about 210 (0.4%) were called active.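 How the source made its calls: active means gene whose silencing raises cell survival under the drug, median off-target-corrected z-score across its silencing RNAs 2 or more; inactive means the rest.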 Some of the results follow.

The nature of this test: Resistance to Poly (ADP-Ribose) Polymerase inhibitor: Gene Identification via Genome-wide siRNA Screen. The settings on record: mouse BRCA2 R2336H ES cells, olaparib, CellTiter-Glo viability; hits give high values. In short, it runs like this:
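Genome-wide siRNA screen (3 siRNAs/gene, 20 nM) in mouse ES cells carrying hypomorphic BRCA2 R2336H; olaparib 500 nM added 48 h post-transfection, CellTiter-Glo viability 72 h later. Normalized to plate-median negative control; MAD z-scores, gene median, seed-adjusted.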
On the technique in general: Cellular ATP, detected with luciferase, serves as a proxy for viable cell number.
As to GGGACAAGUUUCUUAACUGTT against F9, the z-score is inactive: -0.261.
On to CGGCCUGUUAAAUACGCUGTT against Slc39a4, for which the z-score was inactive: -0.188.
In the case of GGGAUAGGGUUCAAUUAGGTT against Bcl2l13 it was inactive: 0.222; in that of “GGUUUGAAUGAAUUCAAGGTT against 6030452D12Rik”, inactive: -0.142.
In the case of GACAAUACCAUCUCCCACUTT against Olfr347 it was inactive: -1.13.
The result for GGAUAGCUUCCUUCAGGUGTT against Hkr2 reads inactive: 2.98; that for “GGAAAAAGGCACGAAAUGATT against 1110013G13Rik”, inactive: -1.21.
Consider GUUCUUAGAGCAGAAGUACTT against Zar1, for which the z-score is inactive: -0.814.
The result for CCUACCAACUUUACAAGAUTT against Tlr3 reads inactive: 0.0494.
The result for GGAAACAAUAACAACUUCCTT against Spinlw1 reads inactive: 0.871.
In the case of GGUACUAGGUCUGAGGGAGTT against Rdh6 it was inactive: 0.16; in that of GGUUUCAGAAUGGAGUUACTT against Saa2, inactive: 0.219.
Turning to GCAGGUCACUUUCUAGAGATT against Sfrs3, the z-score is inactive: 0.314.
Regarding CCAGAGCAACUGUUGCUAATT against Itgb2l, the z-score is inactive: 1.25.
On to GGUUAGAGAUUGUUCUGUUTT against Olfr267, for which the z-score is inactive: -0.733.
The result for GGGAAUUGGGUGUAUACAATT against Hmgcl reads inactive: -0.596.
“CCCUAGAAACUACAGUAAUTT against B830009D23Rik”: the z-score is inactive: -1.12.
The result for GGUCUUCAAAAGCAAUAAATT against Mcm3ap reads inactive: -0.227; that for GGGUAAAUCUACAAGAAGUTT against Snx25, inactive: 0.517.
In the case of GGAUUUGAGCAACUACAGUTT against Eya3 it was inactive: 0.0724; in that of GGAACCGCUGAUGCUUAAGTT against Ctsl, inactive: -0.736.
Regarding GGAUGUUCUUGAAGAAUUCTT against Dgkb, the z-score is inactive: 0.302.
The result for “GGCUGGAUGGCAUCUUUCUTT against 4732467L16Rik” reads inactive: -1.52.
In the case of GCAACAGACAUUGCCAUCATT against Olfr627 it was inactive: -0.132.
The result for GCAUUAAUUGCUUCUCUUATT against Nup155 reads inactive: -0.602; that for GGGCCUAUGCAAUGAAACCTT against Tshr, inactive: -1.29.
Turning to GAUUUUGUUUAUGGCCCAGTT against Olfr1261, the z-score was inactive: -0.0334.
Regarding “GCAUUCUAUCUUGUCUGGATT against 5730522E02Rik”, the z-score was inactive: -1.73.
The result for AUCUCUCCUGUUCUAACACTT against Olfr26 reads inactive: -1.75; that for CCAACUCUAUCGUACUAAATT against AW049604, inactive: 0.0579; that for GGCUAUUCAGGACUACAGCTT against Siat5, inactive: 1.37.
The result for CGUGAACGUAGAGUUUUCUTT against Fcrh3 reads inactive: -0.118; that for GGCUAUGACUAGCUAGAAUTT against Hoxc5, inactive: 0.154.
In the case of “GGAUGACUGUUACAUUAGGTT against E130306M17Rik” it was inactive: -0.712; in that of GCUGACCGAUGUCAUCCUCTT against Itpk1, inactive: 2.41.
GCUAGUUAGAACCUCGUUCTT against Cdk5: the z-score is inactive: 0.283.
In the case of GGAUUUCGAGAUAACUAUGTT against Tbr1 it was inactive: 1.22; in that of GCACCAAGUCGUAUAAACATT against Sh3glb1, inactive: 1.11.
In the case of GGAUCAUUCAGCAUUGUAGTT against Dnm1l, the z-score was inactive: -0.979.
The result for GGAGGAGUAUGUUAAGGCCTT against Myh6 reads inactive: 1.39; that for CGGUUGUCUUUAAAGAUUCTT against Gprin1, inactive: -0.604; that for GGGAGAGCUGCUGUUUUUCTT against BC053073, inactive: 0.167.
The result for GCAUCUGUGUCCAAGUACUTT against Jph1 reads inactive: -0.302; that for CCUACUACACUCAAGGGCATT against Pgc, inactive: 3.04.
The result for “GGAACAUUUCAACCGCCUGTT against E130012A19Rik” reads inactive: 2.41; that for GGAAGUCUCUAGGUUGUAUTT against Ddit4, inactive: -0.766.
GGAAUGUUGCCGUCAUGUUTT against Olfr568: the z-score is inactive: -0.966.
As to GGACAAAGAAGUGAAGUGUTT against Slc26a1, the z-score is inactive: -0.959.
UACAUUAGUAGAAUGGAGGTT against Mageb3: the z-score is inactive: -0.381.
In the case of “CGAUUUAUCUCAGACUUCATT against E430019B13Rik” it was inactive: -0.312; in that of GGUUUAAACUUUCAUGUGGTT against Dffb, inactive: -0.0825.
In the case of GGAGGCAGGAGCAAAACAUTT against Olfr1111 it was inactive: 0.529; in that of GCCAAGAGACUCAAGUAGCTT against Nkg7, inactive: 0.656; in that of GGAAAAAGAAACCAGUGUUTT against Relb, inactive: 0.993.
In the case of GGAUCUCGAGCUGACAGAATT against Gm1082 it was inactive: -0.534; in that of GGCCUUAAAGAAACACAAGTT against Hnrph2, inactive: 0.687; in that of “CGAAGUGGUUAACCACCUCTT against 1700026L06Rik”, inactive: 0.787.
In the case of “GCUCAAGUCUACGAGAGUUTT against D19Ertd678e”, the z-score was inactive: -1.28.
For the sequence CCUGCACAACUGGAAACCUTT against Pvrl2, the z-score is inactive: 0.639.
With UAUUCAACCUCGGUCUCAGTT against Olfr473, the z-score is inactive: 1.24.
The result for CCAGGAAAGAUAUUUGAUGTT against H2-Tw3 reads inactive: -0.265.
The result for GGAAGCUGGCCAUAGAGAATT against Sall4 reads inactive: 0.26; that for GCAUUAACAAAUAUCGUGUTT against Sin3a, inactive: -0.738; that for GGUUCUUCAAACUAGACCGTT against Mov10, inactive: -0.0502.
The result for GCGACUAAUCCUUUGCUACTT against Cdc42bpb reads inactive: 0.594; that for “GGUUAUGAGGAACAAUUAGTT against 2310015I08Rik”, inactive: -0.123.
For the sequence GCUAACAACGUGUGCUUCUTT against BC029169, the z-score was inactive: 1.09.
In the case of GGUCAAGUCAGUAACUGCATT against Olfr10, the z-score was inactive: -0.628.
In the case of GCGGUUACAAAUAUGUGGGTT against Yif1 it was inactive: 0.365.
In the case of GCUGGAACUUAGUGUUCAGTT against Myst4 it was inactive: -1.58; in that of “GGGAAAAGAGCUUGUCCGATT against 4921501E09Rik”, inactive: 0.552; in that of GGGCAAGUUCCAUCUCCUUTT against Cdc42ep2, inactive: -1.67.
Turning to CCUAUUAUGUCAACAUUGATT against Il6st, the z-score is inactive: 1.43.
The result for GGAAAAAAAAAAGGACGAGTT against Smap1 reads inactive: -0.611; that for GGUUGGCUGGAAUUUGACATT against Bmp6, inactive: 1.23.
The result for GGUUACUAAGUGAAGUAAATT against Actr1b reads inactive: -0.0287; that for “CGUGCAUGCAAAUUAUGUATT against 4933417O08Rik”, inactive: -0.372; that for CCAUGUCCAAUGAGGACUUTT against Htr1b, active: 1.74.
The result for GGAUGAUGAGUUUCUCACATT against Pkd1l2 reads inactive: 0.637; that for GCAACAAUAUGAAUAAUGGTT against Robo1, inactive: -0.425.
As for CGAUGUGGACGAGAAGCUATT against Gm592, the z-score was inactive: 0.203.
The result for GGGAGAAACCUGUGCAAAUTT against Serpinb6c reads inactive: 0.67; that for “CCUUCUAGUACAAAAGUUGTT against 5430433L24Rik”, inactive: -0.985; that for “GGUGAUAGGAGAGAGAAAGTT against 5730472N09Rik”, inactive: -1.23.
With GUACCUCAGAGCUCUGCAUTT against Helt, the z-score was inactive: -1.32.
In the case of GAUUUGAGACCCAGAUCAUTT against Gzmm it was inactive: 2.56; in that of GGUCUUUUUGCCUGGUUUUTT against Akap10, inactive: -0.251; in that of GGACAUAGAGAACAUCAUCTT against Cabp7, inactive: -0.693.
Take “GGAACCAUAAAUGUCACUUTT against 9130411I17Rik”: the z-score was inactive: 0.893.
In the case of GGAAGAGCUGGAGUCAGAUTT against BC023488 it was inactive: -0.208; in that of GGAAAGGAGAACAAAGUUCTT against Tnfsf8, inactive: 0.438; in that of GGAAGGUAUUACGUCAAAUTT against Sec24a, inactive: -0.0956.
In the case of “GGGUUGUGGUUAUCAAAUATT against C030003D03Rik” it was inactive: 1.54; in that of GCAAGAACUAUUGCUAUUUTT against V1rh14, inactive: -0.996.
For GCGGCACUUUAUCAUUAUCTT against Hint3, the z-score is inactive: 0.0904.
In the case of GGUAUAUUGGGACCUUUAUTT against Fcgr1, the z-score was inactive: -0.849.
In the case of “GGCAUUUCAUGUAGCUAAATT against 1700067I02Rik” it was inactive: 0.833; in that of GGUGGAGUCUACAAUUCUCTT against Ctsb, inactive: -0.176; in that of UCAGUCAUGCCUUGAGGCUTT against MGC69750, inactive: -0.106.
Take GGUAAUUGGGCGACACCAUTT against Sh3bgrl2: the z-score is inactive: -0.827.
In the case of GGAGGAAUUCUCCAAGCUGTT against Hsd3b1 it was inactive: -1.41; in that of GCGACAUGGGUUAAAAGAATT against Nr4a3, inactive: -0.49; in that of CCCUGGGAAGUGGAUUCAUTT against Olfr694, inactive: 1.15.
In the case of GUGAGACUAAGUUACGCGATT against Olfr1501 it was inactive: 0.734.
